Data reported in PubChem BioAssay AID248 (DTP/NCI, 2004).
The list is a part of this screen's results and no random one: it is rich in T/C values a quarter to a half above the control, in often repeated tests (any T/C) and in doses without a T/C. Further doses and runs are listed elsewhere. T/C: endpoint of the treated group in % of that of the vehicle group. Some entries give survivors of the animals treated and no T/C: the source holds a T/C of zero for them, seemingly a mark for toxic or unscored doses. Some survivor counts are full or nearly so, which does not show that the dose was tolerated: the source hardly ever lists a survival T/C far under the control, and the zero likely stands for such cases as well. Counts of survivors are from the toxicity check (mostly the fifth day) where no day follows; animals may have died later. Schedules are NCI's codes, taken here to give the interval after Q, in days (D) or hours (H), and the number of doses after X. Some entries hold several experiments; the values are given in rising order. Some schedules carry Z or #; the key to these is not given. For survival time, this PubChem deposit counts one and a half times the control or more as active, and values a quarter to a half above the control carry no call in these data; other NCI protocols may use other cut-offs. Brackets with × stand for listed records that agree. Some T/C values are followed by the survivors on the day toxicity was checked, most often the fifth; without a count, all were alive then.

System: L1210 leukemia ip in BDF1 mice, survival T/C
Assay: NCI In Vivo Anticancer Drug Screen. Data for tumor model L1210 Leukemia (intraperitoneal) in B6D2F1 (BDF1) mice
Conditions: T/C endpoint: mean survival time, higher T/C = longer survival
[1] = dose: 400.0 mg/kg/injection, schedule: Q01DX001 (ip), vehicle: saline
[2] = dose: 400.0 mg/kg/injection, schedule: Q01DX009 (ip), vehicle: Klucel (hydroxypropylcellulose) (HPC)
[3] = dose: 100.0 mg/kg/injection, schedule: Q01DX009 (ip), vehicle: saline with Tween-80
[4] = dose: 200.0 mg/kg/injection, schedule: Q01DX009 (ip), vehicle: saline with Tween-80
[5] = dose: 400.0 mg/kg/injection, schedule: Q01DX009 (ip), vehicle: saline with Tween-80
[6] = dose: 400.0 mg/kg/injection, schedule: Q04DX003 (ip), vehicle: saline with Tween-80
[7] = dose: 400.0 mg/kg/injection, schedule: Q04DX003 (ip), vehicle: Klucel (hydroxypropylcellulose) (HPC)
[8] = dose: 300.0 mg/kg/injection, schedule: Q01DX001 (ip), vehicle: saline
[9] = dose: 100.0 mg/kg/injection, schedule: Q01DX009 (ip), vehicle: Klucel (hydroxypropylcellulose) (HPC)
[10] = dose: 200.0 mg/kg/injection, schedule: Q01DX009 (ip), vehicle: Klucel (hydroxypropylcellulose) (HPC)
[11] = dose: 100.0 mg/kg/injection, schedule: Q04DX002 (ip), vehicle: Klucel (hydroxypropylcellulose) (HPC)
[12] = dose: 50.0 mg/kg/injection, schedule: Q04DX003 (ip), vehicle: saline
[13] = dose: 100.0 mg/kg/injection, schedule: Q01DX009 (ip), vehicle: saline
[14] = dose: 200.0 mg/kg/injection, schedule: Q04DX003 (ip), vehicle: saline
[15] = dose: 400.0 mg/kg/injection, schedule: Q04DX003 (ip), vehicle: saline
[16] = dose: 100.0 mg/kg/injection, schedule: Q04DX003 (ip), vehicle: saline
[17] = dose: 100.0 mg/kg/injection, schedule: Q04DX003 (ip), vehicle: saline with Tween-80

Q: Which survivor count (dose: 150.0 mg/kg/injection, schedule: Q01DX001 (ip), vehicle: saline with Tween-80) does the source give for `CCCCc1c(N)nc(N)nc1N` here?
A: The survivor count was 0 of 6.

Q: What about the survivor count (dose: 300.0 mg/kg/injection, schedule: Q01DX001 (ip), vehicle: saline with Tween-80) of the same molecule?
A: The survivor count was 0 of 6.

Q: How did the survivor count (dose: 150.0 mg/kg/injection, schedule: Q01DX009 (ip), vehicle: saline) turn out when `Nc1ccc(Nc2ccccc2)c(N)c1` was run?
A: Its survivor count is 1 of 6.

Q: What about the survivor count (dose: 300.0 mg/kg/injection, schedule: Q04DX003 (ip), vehicle: saline) of the same molecule?
A: Its survivor count is 3 of 6.

Q: With `Cc1cs[n+](C)c1` as the molecule, how does the survivor count [1] read?
A: Its survivor count is 1 of 6.

Q: Which survivor count [2] does the source give for `NS(=O)(=O)c1ccc(S(=O)(=O)NC2CCCCC2)cc1` here?
A: The survivor count was 6 of 6.

Q: For `c1cc[c]([Pb]([c]2ccccc2)([c]2ccccc2)[n]2ccc3ccccc32)cc1`, which survivor count (dose: 6.25 mg/kg/injection, schedule: Q01DX009 (ip), vehicle: saline with Tween-80) is on record?
A: Its survivor count is 3 of 6.

Q: What about the survivor count (dose: 12.5 mg/kg/injection, schedule: Q01DX009 (ip), vehicle: acetone) of the same molecule?
A: The survivor count was 0 of 6.

Q: And the survivor count (dose: 25.0 mg/kg/injection, schedule: Q01DX009 (ip), vehicle: acetone)?
A: Its survivor count is 0 of 6.

Q: And the survivor count (dose: 50.0 mg/kg/injection, schedule: Q01DX009 (ip), vehicle: acetone)?
A: Its survivor count is 0 of 6.

Q: And the survivor count [3]?
A: The survivor count was 0 of 6.

Q: What about the survivor count [4] of the same molecule?
A: The survivor count was 0 of 6.

Q: And the survivor count [5]?
A: Its survivor count is 0 of 6.

Q: With `N=C(N)N=Nc1cc(O)c(NN=C(N)N)cc1O` as the molecule, how does the survivor count (dose: 30.0 mg/kg/injection, schedule: Q01DX Z (ip), vehicle: saline) read?
A: Its survivor count is 1 of 6.

Q: And the survivor count (dose: 60.0 mg/kg/injection, schedule: Q01DX Z (ip), vehicle: saline)?
A: The survivor count was 0 of 6.

Q: And the survivor count (dose: 60.0 mg/kg/injection, schedule: Q01DX Z (oral), vehicle: saline)?
A: The survivor count was 3 of 6.

Q: And the survivor count (dose: 120.0 mg/kg/injection, schedule: Q01DX Z (ip), vehicle: saline)?
A: Its survivor count is 0 of 6.

Q: How did the survivor count [1] turn out when `CC(C)(C)CC(C)(C)c1ccc(OCCOc2ccc(C(=O)O)cc2N)cc1` was run?
A: Its survivor count is 6 of 6.

Q: For `Cc1cc(=O)n(C)c2ccccc12`, which survivor count (dose: 400.0 mg/kg/injection, schedule: Q01DX001 (ip), vehicle: carboxymethylcellulose (CMC)) is on record?
A: Its survivor count is 2 of 4.

Q: And the survivor count [2]?
A: The survivor count was 0 of 6.

Q: What does the source list for `CC1CN(Cc2cccc(C#N)c2)CC(C)N1` (stereo not drawn)?
A: survivor count (dose: 200.0 mg/kg/injection, schedule: Q01DX009 (ip), vehicle: water): 0 of 6; survivor count (dose: 400.0 mg/kg/injection, schedule: Q01DX009 (ip), vehicle: water): 0 of 6

Q: For `CCCC1N(C)CCCN1C`, which survivor count [6] is on record?
A: The survivor count was 0 of 6.

Q: Which survivor count [7] does the source give for `OC1CNCCc2ccccc21` (stereo not drawn) here?
A: The survivor count was 1 of 6.

Q: `CCCCC[n+]1cccc(C#N)c1` was tested. Which survivor count [8] did it give?
A: The survivor count was 2 of 6.

Q: Which survivor count (dose: 400.0 mg/kg/injection, schedule: Q04DX002 (ip), vehicle: saline) does the source give for `CCCCCCCCCCCCC(=O)N1CCCCC1` here?
A: Its survivor count is 3 of 3.

Q: Which survivor count [1] does the source give for `CCOC(=N)c1nnn(Cc2ccccc2)c1N` here?
A: Its survivor count is 1 of 4.

Q: For `O=C(O)c1ccccc1Br`, which survivor count (dose: 400.0 mg/kg/injection, schedule: Q04DX002 (ip), vehicle: saline with Tween-80) is on record?
A: The survivor count was 3 of 3.

Q: With `Nc1nc(-c2ccccc2)cs1` as the molecule, how does the survivor count [9] read?
A: The survivor count was 0 of 6.

Q: What about the survivor count [10] of the same molecule?
A: The survivor count was 0 of 6.

Q: And the survivor count [2]?
A: Its survivor count is 0 of 6.

Q: What does the source list for `O=C(Nc1ccc(F)cc1)Nc1nccs1`?
A: T/C [11]: 102, 107, 110 % of control; survivor count [11]: 3 of 3; T/C (dose: 200.0 mg/kg/injection, schedule: Q04DX002 (ip), vehicle: Klucel (hydroxypropylcellulose) (HPC)): 100, 104, 108, 112 % of control; survivor count [2]: 3 of 6; T/C (dose: 400.0 mg/kg/injection, schedule: Q04DX002 (ip), vehicle: Klucel (hydroxypropylcellulose) (HPC)): 98, 105 (2×), 125 % of control

Q: With `O=[N+]([O-])c1ccc(NCCNC(c2ccccc2)(c2ccccc2)c2ccccc2)c([N+](=O)[O-])c1` as the molecule, how does the survivor count [1] read?
A: The survivor count was 6 of 6.

Q: For `CN1CCC(=C2c3ccccc3C=Cc3ccccc32)CC1`, which survivor count [12] is on record?
A: Its survivor count is 4 of 4.

Q: And the survivor count [13]?
A: Its survivor count is 4 of 6.

Q: And the survivor count [14]?
A: Its survivor count is 0 of 4.

Q: What about the survivor count [15] of the same molecule?
A: Its survivor count is 0 of 4.

Q: What does the source list for `CNCC(C)CNC`?
A: survivor count (dose: 200.0 mg/kg/injection, schedule: Q01DX009 (ip), vehicle: saline): 2 of 6; survivor count [14]: 5 of 6; survivor count [15]: 1 of 6

Q: How did the survivor count (dose: 400.0 mg/kg/injection, schedule: Q01DX001 (ip), vehicle: saline with Tween-80) turn out when `CCOC(=O)Nc1cc(NCCCCc2ccccc2)c(N)c(N)n1` was run?
A: The survivor count was 0 of 6.

Q: Which results are given for `O=[N+]([O-])c1cc(Cl)c(Cl)c([N+](=O)[O-])c1O`?
A: survivor count (dose: 200.0 mg/kg/injection, schedule: Q04DX003 (ip), vehicle: acetone): 5 of 6; survivor count (dose: 225.0 mg/kg/injection, schedule: Q01DX009 (ip), vehicle: acetone): 0 of 6; survivor count (dose: 335.0 mg/kg/injection, schedule: Q01DX009 (ip), vehicle: acetone): 0 of 6; survivor count [1]: 1 of 6

Q: How did the survivor count (dose: 25.0 mg/kg/injection, schedule: Q04DX003 (ip), vehicle: saline) turn out when `COc1ccc2c(c1)c1c(C)c3cnccc3c(C)c1n2CCCN` was run?
A: Its survivor count is 6 of 6.

Q: And the survivor count [12]?
A: Its survivor count is 4 of 6.

Q: What about the survivor count [16] of the same molecule?
A: The survivor count was 1 of 6 and 3 of 6.

Q: What about the survivor count [14] of the same molecule?
A: Its survivor count is 4 of 6.

Q: And the survivor count [15]?
A: The survivor count was 0 of 6.

Q: Which results are given for `O=C(Nc1ccccc1F)Sc1c(Cl)c(Cl)nc(Cl)c1Cl`?
A: T/C [9]: 91, 95 [2 of 3 alive], 100, 108 % of control; survivor count [10]: 0 of 3 and 2 of 6; survivor count [2]: 0 of 3 and 1 of 6

Q: For `CCc1c2cc(OC)c(OC)cc2cc2c3cc(OC)c(OC)cc3cc[n+]12` (tested in a mixture with another compound), which T/C (dose: 44.0 mg/kg/injection, schedule: Q01DX009 (ip), vehicle: saline with Tween-80) is on record?
A: Its T/C is 147 % of control.

Q: And the T/C [3]?
A: The T/C was 142 % of control.

Q: And the T/C [13]?
A: Its T/C is 145 % of control.

Q: And the T/C (dose: 132.0 mg/kg/injection, schedule: Q04DX003 (ip), vehicle: saline)?
A: The T/C was 132 % of control [5 of 6 alive].

Q: What about the survivor count [4] of the same molecule?
A: Its survivor count is 3 of 6.

Q: What about the T/C [14] of the same molecule?
A: Its T/C is 137 % of control.

Q: And the survivor count [5]?
A: Its survivor count is 0 of 6.

Q: `CCOP(=O)(OCC)OCCSCC` was tested. Which survivor count [8] did it give?
A: Its survivor count is 2 of 6.

Q: For `O=C(Nc1cccc(C(F)(F)F)c1)C(Br)C(Br)c1ccccc1` (stereo not drawn), which survivor count [2] is on record?
A: Its survivor count is 1 of 6.

Q: Which results are given for `Nc1ccc(C(=O)CCCN2CCCCC2)cc1`?
A: survivor count [16]: 3 of 6; survivor count [14]: 0 of 6; survivor count [15]: 0 of 6

Q: What does the source list for `CCc1nc(=O)c2ccccc2n1C`?
A: survivor count (dose: 10.0 mg/kg/injection, schedule: Q01DX001 (ip), vehicle: saline): 0 of 6; survivor count (dose: 20.0 mg/kg/injection, schedule: Q01DX001 (ip), vehicle: saline): 0 of 6; survivor count (dose: 40.0 mg/kg/injection, schedule: Q01DX001 (ip), vehicle: saline): 0 of 6; survivor count (dose: 75.0 mg/kg/injection, schedule: Q01DX001 (ip), vehicle: saline): 0 of 6; survivor count (dose: 150.0 mg/kg/injection, schedule: Q01DX001 (ip), vehicle: saline): 0 of 6; survivor count [8]: 0 of 6

Q: For `CCCCOC1NC(=O)NC(=O)C1=[N+]=[N-]` (stereo not drawn), which T/C [17] is on record?
A: The T/C was 128 % of control.

Q: What about the survivor count [17] of the same molecule?
A: Its survivor count is 1 of 6.

Q: And the survivor count (dose: 150.0 mg/kg/injection, schedule: Q04DX003 (ip), vehicle: saline with Tween-80)?
A: The survivor count was 0 of 6.

Q: What about the survivor count [6] of the same molecule?
A: The survivor count was 0 of 6.

Q: Which survivor count (dose: 200.0 mg/kg/injection, schedule: Q04DX003 (ip), vehicle: Klucel (hydroxypropylcellulose) (HPC)) does the source give for `O=C1c2ccccc2C(Cl)=C(Cl)C1(Cl)Cl` here?
A: The survivor count was 6 of 6.

Q: And the survivor count [7]?
A: Its survivor count is 0 of 6.

Q: Which survivor count [5] does the source give for `CCC(=O)/C=C/C1=C(C)CCCC1(C)C` here?
A: Its survivor count is 3 of 6.

Q: For `O=C(O)[C@H]1CCCC[C@H]1C(=O)O`, which survivor count (dose: 100.0 mg/kg/injection, schedule: Q04DX003 (ip), vehicle: Klucel (hydroxypropylcellulose) (HPC)) is on record?
A: Its survivor count is 6 of 6.
